Laboratory results from patent publication US20230272392A1, “METHODS OF TFEB ACTIVATION AND LYSOSOMAL BIOGENESIS AND COMPOSITIONS THEREFOR” (Casma Therapeutics, Inc., priority 2020, published 2023).
For at least one compound, name, drawing or mass did not settle the structure.

Tested on: TFEB target genes (FLCN and SQSTM1)
Experiment: Expression of established TFEB target genes (e.g., FLCN and SQSTM1)
Type: cell-based
Settings: co-treatment with AZD8055 or C8; FIG. 22

C=CC[C@@H]1/C=C(\C)C[C@H](C)C[C@H](OC)[C@H]2O[C@@](O)(C(=O)C(=O)N3CCCC[C@H]3C(=O)O[C@H](/C(C)=C/[C@@H]3CC[C@@H](O)[C@H](OC)C3)[C@H](C)[C@@H](O)CC1=O)[C@H](C)C[C@@H]2OC [FK506]
Effect of co-treatment on TFEB target gene expression: did not impact gene expression
